One test addresses T1, GST-fused sharpin (UniProt Q9H0F6).
T1 sequence: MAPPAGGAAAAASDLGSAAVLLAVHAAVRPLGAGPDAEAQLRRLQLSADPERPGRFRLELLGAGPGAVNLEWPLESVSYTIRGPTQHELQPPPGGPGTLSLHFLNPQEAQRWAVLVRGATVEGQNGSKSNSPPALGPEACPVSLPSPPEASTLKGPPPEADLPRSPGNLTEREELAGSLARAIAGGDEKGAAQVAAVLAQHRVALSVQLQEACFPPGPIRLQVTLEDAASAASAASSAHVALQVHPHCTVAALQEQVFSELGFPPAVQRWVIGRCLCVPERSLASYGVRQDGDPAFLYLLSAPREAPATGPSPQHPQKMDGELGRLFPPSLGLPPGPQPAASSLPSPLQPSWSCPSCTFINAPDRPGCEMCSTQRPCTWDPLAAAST
Description: pull-down; GST-SH on Glutathione Sepharose beads, incubated with his-tagged kindlins or kindlin-1 mutants; immunoblotting (Fig. 3b, 3e); both purified.

Amino acid sequences for entries named in this document (tags omitted). A change or cut given only in a name is not applied to a line headed by its entry.
UniProt Q9BQL6: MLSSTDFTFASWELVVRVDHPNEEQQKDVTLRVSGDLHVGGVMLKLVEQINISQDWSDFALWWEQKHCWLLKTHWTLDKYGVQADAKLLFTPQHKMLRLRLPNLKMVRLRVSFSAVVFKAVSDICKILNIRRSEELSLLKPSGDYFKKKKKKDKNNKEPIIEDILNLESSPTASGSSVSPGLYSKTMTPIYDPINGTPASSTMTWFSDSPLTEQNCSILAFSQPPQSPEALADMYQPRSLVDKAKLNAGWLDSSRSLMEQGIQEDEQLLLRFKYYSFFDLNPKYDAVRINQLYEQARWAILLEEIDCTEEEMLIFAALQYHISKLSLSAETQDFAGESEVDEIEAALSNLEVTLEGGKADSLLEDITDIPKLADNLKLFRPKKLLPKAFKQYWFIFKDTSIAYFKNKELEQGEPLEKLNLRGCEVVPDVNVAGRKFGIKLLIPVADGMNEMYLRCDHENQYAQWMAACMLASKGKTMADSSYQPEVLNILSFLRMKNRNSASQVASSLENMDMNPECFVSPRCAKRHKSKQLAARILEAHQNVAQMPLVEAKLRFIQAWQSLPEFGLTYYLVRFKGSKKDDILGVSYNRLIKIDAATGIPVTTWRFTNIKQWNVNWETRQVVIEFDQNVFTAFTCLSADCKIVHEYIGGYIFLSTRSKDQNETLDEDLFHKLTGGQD

Test [1] concerns the target kindlin-1 QW/AA mutant, fused with the DNA-binding domain of GAL4 (pGBKT7) (UniProt Q9BQL6). Description: two-hybrid; Matchmaker Gold yeast two-hybrid; AD-sharpin (pGADT7) with BD-kindlin (pGBKT7); growth on SD-4 selection media, serial dilution (Fig. 3a, 3f).
The target of test [2] is kindlin-1 missing the F1 subdomain, fused with the DNA-binding domain of GAL4 (pGBKT7). Described as above.

These are yes or no findings as the source states them, for the method shown. A result given as binding can be weak or reduced; the word gives no strength. Tags and fused reporters may be left off the sequences shown.

Take “N-terminal fragment (F0 + F1) of kindlin-1, his-tagged (domain or fragment)”: the binding entry in the test with GST-fused sharpin is on record as “binds”.

Regarding “kindlin-1 missing the F1 subdomain, his-tagged (domain or fragment)”, the binding result with GST-fused sharpin was “binds”.

Regarding “kindlin-1 with a deletion of the F0 subdomain, his-tagged (domain or fragment)”, the binding result with GST-fused sharpin is “no binding”.

B1: AD-sharpin (sharpin fused with the activation domain of GAL4, pGADT7) (protein, UniProt Q9H0F6 1-387)
chain: T1 sequence
As for B1, the binding result in test [1] and in test [2] was “binds” throughout.

(Values after article PMC6700787, “Sharpin suppresses β1-integrin activation by complexing with the β1 tail and kindlin-1” (Cell Communication and Signaling : CCS, 2019).)
